For one compound, IC50 results are on record in patent publication US8163793B2, “Proline derivatives” (Hoffman-La Roche Inc., priority 2009, dated 2012).

As a reminder, the pIC50 is the negative decadic logarithm of the IC50, by convention in mol/L.

pIC50: −log10 of the molar value. Counter-ions that a name gives are not always drawn.

The target of one assay is Cat L (UniProt P07711). The experiment in a line: Cathepsin enzyme inhibition assay (fluorogenic peptide substrate Z-Val-Val-Arg-AMC), Cathepsin L. Type of assay: biochemical, human and mouse. The conditions noted are these: enzyme 1 nM, substrate 20 μM, pH 6.5; read-out: CatL IC50. The method, then: (§1) Cathepsin Enzyme Inhibition Assay
(§2) Enzyme activity is measured by observing the increase in fluorescence intensity caused by cleavage of a peptide substrate containing a fluorophore whose emission is quenched in the intact peptide.
(§3) Assay buffer: 100 mM potassium phosphate pH 6.5, EDTA-Na 5 mM, Triton X-100 0.001%, DDT 5 mM.
(§4) Enzymes (all at 1 nM): human and mouse Cathepsin S, Cat K, Cat B, Cat L Substrate (20 μM): Z-Val-Val-Arg-AMC, except for Cat K which uses Z-Leu-Arg-AMC (both from Bachem).
(§5) AMC=7-Amino-4-Methyl-Coumarin.
Excitation 360 nm, Emission 465 nm.
Enzyme is added to the substance dilutions in 96-well microtitre plates and the reaction is started with substrate. Fluorescence emission is measured over 20 minutes, during which time a linear increase is observed in the absence of inhibitor. IC50 are calculated by standard methods. The results are expressed in μM in the following table.

Another assay has as its target Cathepsin S (UniProt P25774). The experiment in a line: Cathepsin enzyme inhibition assay (fluorogenic peptide substrate Z-Val-Val-Arg-AMC), Cathepsin S. Type of assay: biochemical, human and mouse. The conditions noted are these: enzyme 1 nM, substrate 20 μM, pH 6.5; read-out: CatS IC50. The protocol: as §1, §2, §3, §4, §5
Enzyme is added to the substance dilutions in 96-well microtitre plates and the reaction is started with substrate. […] IC50 are calculated by standard methods. The results are expressed in μM in the following table.

Turning to `N#CC1(NC(=O)[C@@H]2C[C@@H](S(=O)(=O)c3ccccc3Cl)CN2)CC1` [Example 42, (2S,4R)-4-(2-Chloro-benzenesulfonyl)-pyrrolidine-2-carboxylic acid (1-cyano-cyclopropyl)-amide Hydrochloride], the negative-log IC50 (pIC50) was 5.03 on Cat L and 8.30 on Cathepsin S.
